Experiments:
[1] = system: HeLa cells; test: Kinase-catalyzed biotinylation of live HeLa cells (in cellulo); assay type: cell-based; settings: inhibitor 1 μM 1 hour before APB
Description: After washing the cells, the reaction mixtures were separated by SDS-PAGE and visualized with SYPRO® Ruby total protein stain. […] Detailed experimental procedures and data are supplied as supporting information. […] Cell pellets were lysed in lysis buffer (31 μL) on ice for 30 minutes and then lysates were collected as in section VII.

[2] = system: HeLa cells; test: DC-assisted in cellulo kinase-catalyzed biotinylation of HeLa cells; assay type: cell-based; settings: inhibitor 1 μM 1 hour before ATP-biotin/DC
Description: Lysates were collected by removing cell debris through centrifugation at 13,200 rpm for 10 minutes at 4° C. […] The gels were images using a Typhoon imager (GE Healthcare Life Sciences) using excitation and emission wavelengths of 650 nm and 670 nm.

Compound: CN[C@@H]1C[C@H]2O[C@@](C)([C@@H]1OC)n1c3ccccc3c3c4c(c5c6ccccc6n2c5c31)C(=O)NC4 [staurosporine, reference compound]
- effect of kinase inhibitor pre-treatment on in cellulo biotinylation with APB [1]: reduced biotinylation
- effect of kinase inhibitor pretreatment on DC-assisted in cellulo biotinylation [2]: reduced biotinylation
